# Some of the results follow.
# B1: il10ra_site1_sap_16_mot_HHH_b2_04251_af2_000000037_0001_42_56_H_._HHH_b1_07004_0001_0000200017_0000001_0_0001 (protein)
# chain: SSSSDVRERAARVAIEVLRIAFQQSDPEALRAVWELFRRIIEEGDPELLEELEQLLEELRSSSSS
# B2: il10ra_site1_normal_mot_HHH_b2_04680_000000215_0001_1_16_H_._HHH_b1_03846_0001_0000500024_0000001_0 (protein)
# chain: SSSSSDEEVREAYELAREAFHIEDPEEVRRLLEEALELAEEGNNFALLFAIRLALRDLNSSSSSS
# B3: il10ra_site1_normal_mot_HHH_b1_05937_af2_000000262_0001_20_37_H_._HHH_b2_02616_0001_0000500050_0000001_0 (protein)
# chain: SSSSDEEERLEQLLEELERLLEEGDRERFLRVAIEILRLAFELGDEEALKIVWELVQKLNSSSSS
# B4: il10ra_site1_normal_mot_HHH_b1_01879_000000050_0001_1_18_H_._HHH_b1_07598_af2_0001_0000200009_0000001_0_af2pred_0001 (protein)
# chain: SSSSSDEEERFLRLLIEAFQLLENGNPEEAEKVLREAEELAEELNDPAAKQAVEVLLSLLSSSSS
# B5: il10ra_site1_sap_17_mot_HHH_b2_04057_000000065_0001_1_20_H_._HHH_b2_05897_0001_0000400029_0000002_0_0001_af2pred_0001 (protein)
# chain: SSSSSEEIYKAIRLFALLLRLLERGDEEKVEEVEEELEELAEKYNDRTARAALKLFRERGSSSSS
# B6: il10ra_site1_normal_mot_HHH_b2_00475_000000107_0001_44_57_H_._HHH_b2_01109_0001_0000200013_0000001_0 (protein)
# chain: SSSSDTREEVVQLLLRAVRLKAEGNPEEAREVLEEAEKVAREGNDEELERYLEIAKHFVNSSSSS
# B7: il10ra_site1_normal_mot_HHH_b2_02537_000000065_0001_1_20_H_._HHH_b1_01288_0001_0000500057_0000001_0 (protein)
# chain: SSSSSTDEEFEEVKRLIKLLAEARSEEERREIEEEMEELAKHVSEIFRFALEHALRLQRSSSSSS
# B8: il10ra_site1_sap_22_mot_HHH_b1_01513_af2_000000021_0001_1_16_H_._HHH_b1_03950_0001_0001000030_0000001_0_0001 (protein)
# chain: SSSSDANERIWELLRRALELLAEGDPEEARELIEEAEELAEEANSRVLRKVIEHLLRAVKSSSSS
# B9: il10ra_site1_normal_mot_HHH_b1_03333_000000091_0001_1_17_H_._HHH_b1_06365_0001_0000200014_0000001_0 (protein)
# chain: SSSSSLYERVKKVIEELIELFKRGNPEEARELAEEMLREVEEAGNTAALFALRHALRLINSSSSS
# B10: il10ra_site1_sap_14_mot_HHH_b2_00345_af2_000000013_0001_42_56_H_._HHH_b2_02124_0002_0000500018_0000001_0_0001 (protein)
# chain: SSSSDEEVEELEEQIRELLEEGDTERALELIQEMLRVAFRLRDQEAIQAAWELVKSVLENSSSSS
# B11: il10ra_site1_normal_mot_513c16ae44941e68898e0f7c259e5a28_0001_1_000000056_0001_35_50_H_._HHH_eva_0144_af2_0001_0000100003_0000002_0 (protein)
# chain: SSDPRQIRDLVRAIERLVRQGILDPHFAVRALEALEEDAREVGDEELEELVKEVLEEIEKLISSS
# B12: il10ra_site1_sap_19_mot_HHH_b1_00992_000000182_0001_23_40_H_._HHH_b1_02574_0001_0000200023_0000001_0_0001 (protein)
# chain: SSSSDEEEELVRAALRLAEQAYENGDPEAAKRLLWAAEFLAREIGDEELEELVERVEEKISSSSS
# B13: il10ra_site1_normal_mot_HHH_b1_04065_000000255_0001_41_56_H_._HHH_b2_00788_0001_0000600064_0000002_0 (protein)
# chain: SSSSSEEVEELLEEAERLAEEGNPHEASEALFEALRRAFELGDPELLRLVDRVAIELYERLSSSS
# B14: il10ra_site1_sap_14_mot_HHH_b2_06846_000000142_0001_38_52_H_._HHH_b2_07255_0001_0000100004_0000002_0_0001 (protein)
# chain: SSSSSSSSEVEEEVRRLLEEAEENPERANELLAEALRLAYRHNNKELLREIWEVLHELSSSSSSS
# B15: il10ra_site1_sap_12_mot_HHH_b2_06228_000000276_0001_1_15_H_._HHH_b1_06652_0001_0000300012_0000001_0_0001 (protein)
# chain: SSSSDEEEIEELLKELEEALRRGDHHLFTRILDRVMKLIEELGDEELAEELQRLFHEFLRKSSSS
# B16: il10ra_site1_sap_14_mot_HHH_b1_02464_000000069_0001_1_19_H_._HHH_b1_01491_0001_0000400045_0000001_0_0001 (protein)
# chain: SSSSSDASQELMELVKRVSELDQRGDEEEAKELLEEIERLAEEKNNWIARAMVELLHRVLSSSSS
# B17: il10ra_site1_normal_mot_HHH_b1_05357_000000034_0001_23_39_H_._HHH_b1_00950_0001_0000100002_0000001_0 (protein)
# chain: SSSSDVEELLEEAREATEEGDKQLVSHLLIQAYALAHQKNDPELEELVRRVARELVELLASSSSS
# B18: il10ra_site1_normal_mot_HHH_b1_03754_af2_000000016_0001_40_56_H_._HHH_b1_01843_0001_0000300022_0000002_0 (protein)
# chain: SSSSSSSAEESVRRLLHAARQLDDEEYVRLSLRFAKFLAEQANDEELEREIEELEERLSSSSSSS
# B19: il10ra_site1_sap_27_mot_HHH_b1_03754_af2_000000016_0001_40_56_H_._HHH_b2_03275_0001_0000100008_0000001_0_0001 (protein)
# chain: SSSSSDEEIRERVEELIEELEKVSSDEAYELLREAIELAAELNDPELFRLVLEAIREWLHSSSSS
# Biological target: il10ra, Q13651
# Assay: yeast display titration
row,Binder,apparent Kd
1,B1,inactive: no binding seen
2,B2,inactive: no binding seen
3,B3,inactive: no binding seen
4,B4,inactive: no binding seen
5,B5,inactive: no binding seen
6,B6,inactive: no binding seen
7,B7,inactive: no binding seen
8,B8,inactive: no binding seen
9,B9,inactive: no binding seen
10,B10,inactive: no binding seen
11,B11,inactive: no binding seen
12,B12,inactive: no binding seen
13,B13,inactive: no binding seen
14,B14,inactive: no binding seen
15,B15,inactive: no binding seen
16,B16,inactive: no binding seen
17,B17,inactive: no binding seen
18,B18,inactive: no binding seen
19,B19,inactive: no binding seen

# Shown bar-delimited: part of the list above
row | Binder | apparent Kd
16 | B16 | inactive: no binding seen
19 | B19 | inactive: no binding seen
